AC50 data for 38 compounds are collected here from PubChem BioAssay AID445 (National Center for Advancing Translational Sciences (NCATS), 2006).

This assay in a line: IkB Signaling. The settings on record: ABC-DLBCL IkBa-CBG/CBR dual luciferase ratio (green luciferase fused to IkBa over red control in OCI-Ly3 lymphoma cells), 4 h. The method, boiled down:
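Curves were fitted separately to fusion (green), unfused (red) and ratio luminescence, then classed by r2, magnitude and activity. Cells: OCI-Ly3, 4 h compound plus doxycycline at 37C; 10 uM MG-132 defined full response.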

The mark [1] stands for this setting: measured here: control luc red channel unless noted.

The other results are listed elsewhere or left out. These are further read-outs of the screen, such as a control signal, another cell line or another target. No call is given for them. Compounds called inactive in the main read-out are mostly missing here. Words in brackets tell the shape of the fitted curve; partial curves, single points and poor fits give uncertain potencies.

With `COc1cc(OC)cc(-c2nc3n(n2)C(c2ccccc2)C(C(N)=O)=C(C)N3)c1` (centres undefined), under setting [1], the AC50 (as a rule, the midpoint of the concentration-response curve, whichever way the signal moves) is 39.8 µM [falling, single point].

`Cc1sc(-c2cc3c([nH]c2=O)CC(c2ccccc2)CC3=O)nc1-c1ccc(Cl)cc1` (centres undefined): the AC50 is 3.98 µM [rising, full curve, poor fit] (measured here: IkB-luc green channel) and 0.126 µM [rising, full curve, poor fit] (measured here: control luc red channel).

As for `Cc1c(C(=O)N2CCOCC2)oc2c1-c1nn(CC(=O)NCc3cccc(Cl)c3)cc1CC2`, the AC50 under setting [1] is 15.8 µM [falling, single point].

Turning to `CCCCS(=O)(=O)c1oc(-c2ccc(F)cc2)nc1S(=O)(=O)c1ccc(C)cc1`, the AC50 under setting [1] was 3.98 µM [falling, full curve].

With `O=C(NCc1cccc(F)c1)c1ccc(NC(=O)c2nsc3ccccc23)cc1`, the half-maximal activity concentration (AC50) under setting [1] is 0.316 µM [falling, full curve].

With `CC(C)(C)OC(=O)N1CCC(c2c(C(=O)NCCc3ccccc3)cnn2-c2ccc(F)cc2F)CC1`, the AC50 under setting [1] was 20 µM [falling, partial curve].

In the case of `Cn1c(=O)oc2cc(S(=O)(=O)N3CCC(C(=O)N4CCN(c5ccccc5F)CC4)CC3)ccc21`, the AC50 under setting [1] is 20 µM [falling, single point].

For the compound `COc1cccc(N2CCN(S(=O)(=O)c3cc(-c4cc(C)no4)ccc3C)CC2)c1`, under setting [1], the AC50 is 3.16 µM [falling, full curve].

As to `O=c1c2cn[nH]c2nc(SCc2c(F)cccc2F)n1-c1ccc(Cl)cc1`, under setting [1], the AC50 was 39.8 µM [falling, partial curve].

For `CCCCN(CC)CCCNC(=O)Cn1ncc2c([nH]c3ccc(C)cc32)c1=O`, the AC50 under setting [1] was 39.8 µM [falling, single point].

Take `O=C(c1ccco1)N1CCN(C(=O)C(Sc2ccccc2)c2ccccc2)CC1` (centres undefined): the AC50 under setting [1] is 25.1 µM [falling, partial curve].

On to `COc1ccc(N(CC(=O)N2CCN(c3ccc(F)cc3)CC2)S(=O)(=O)c2c(C)noc2C)cc1`, for which the AC50 under setting [1] was 10 µM [falling, partial curve].

Turning to `O=C(NCc1ccco1)c1ccc2c(c1)N(Cc1ccc(F)cc1)C(=O)c1ccccc1S2(=O)=O`, the AC50 under setting [1] was 15.8 µM [falling, single point].

In the case of `CC(C)(C)c1cc(C(F)(F)F)nc(SCCCNC(=O)c2ccco2)n1`, the AC50 under setting [1] is 31.6 µM [falling, single point].

Turning to `Cc1cc(-c2ccccc2)nc(N2CCN(c3ccccn3)CC2)n1`, the AC50 under setting [1] was 31.6 µM [falling, partial curve].

Take `Cc1cc(C)cc(OCC(=O)N2CCC(c3nc4ccccc4s3)CC2)c1`: the AC50 under setting [1] was 6.31 µM [falling, partial curve].

Consider `CCCN1C(=O)C(Cc2nc3ccccc3c(=O)n2-c2ccc(OC)cc2)c2cc(C)ccc21` (centres undefined), for which the AC50 under setting [1] was 39.8 µM [falling, single point].

As to `NC(=O)CSc1nc2ccc(NC(=O)COc3ccccc3Cl)cc2s1`, the AC50 under setting [1] is 0.501 µM [falling, full curve].

With `Cc1cccc(-n2nc(C)c(C(=O)N3CCN(c4ccccc4)CC3)c2-n2cccc2)c1`, under setting [1], the half-maximal activity concentration (AC50) was 25.1 µM [falling, partial curve].

Turning to `Cc1ccc(C)c(N2CCN(C(=O)C(CC(C)C)NS(=O)(=O)c3ccc4nc(C)sc4c3)CC2)c1` (centres undefined), the AC50 under setting [1] was 15.8 µM [falling, partial curve].

Take `CCOc1ccc(-c2cc(C(=O)NCCc3ccc(OC)c(OC)c3)c3c(-c4ccc(F)cc4)[nH]nc3n2)cc1`: under setting [1], the AC50 is 2.51 µM [rising, partial curve].

In the case of `CCOC(=O)c1cnc2c(C)cccc2c1Nc1ccc(OC(C)C)cc1`, the concentration at half-maximal activity (AC50) under setting [1] was 3.98 µM [falling, partial curve].

Take `Cc1cccc(OCCCn2c(CCNC(=O)C3CCCCC3)nc3ccccc32)c1`: the AC50 under setting [1] was 15.8 µM [falling, partial curve].

For `COc1ccccc1CN(Cc1c(Cl)cccc1Cl)S(=O)(=O)c1ccc(Br)cc1`, under setting [1], the AC50 is 12.6 µM [falling, partial curve].

Consider `CSc1ccc(CCNC(=O)c2cc3cc4cc(C)ccc4nc3s2)cc1`, for which the concentration at half-maximal activity (AC50) under setting [1] was 31.6 µM [rising, partial curve, poor fit].

Turning to `CCN1C=C(Cc2cccs2)C2=C(C1)C(c1cccs1)C(C#N)=C(N)O2` (centres undefined), the AC50 under setting [1] was 10 µM [falling, partial curve].

Turning to `COC(=O)c1sccc1S(=O)(=O)N(CC(=O)Nc1ccccc1)c1ccccc1`, the AC50 under setting [1] is 15.8 µM [falling, partial curve].

For `Cc1cc(C(=O)NCc2ccccc2Cl)c2c(C)nn(-c3cccc(F)c3)c2n1`, the AC50 under setting [1] is 3.98 µM [falling, partial curve].

On to `Cc1ccc2oc(=O)n(CCNC(=O)Nc3ccc(Cl)cc3)c2c1`, for which the AC50 under setting [1] was 15.8 µM [falling, partial curve].

As for `O=C(NCC(c1ccco1)S(=O)(=O)c1cccs1)c1ccc(Cl)cc1` (centres undefined), the concentration at half-maximal activity (AC50) under setting [1] was 0.126 µM [falling, partial curve, poor fit].

With `CCCN(C(=O)Nc1cn(CC(C)C)c(=O)c2ccccc12)c1ccc(F)cc1`, under setting [1], the AC50 is 25.1 µM [falling, partial curve, poor fit].

As to `Cc1ccc(C(=O)Nc2ccc3oc(-c4ccccc4C)nc3c2)cc1`, under setting [1], the AC50 was 0.316 µM [falling, full curve, poor fit].

On to `CCCC(=O)c1ccc(N2CCN(C(=O)c3ccccc3)CC2)c(F)c1`, for which the AC50 under setting [1] is 12.6 µM [falling, partial curve].

Regarding `CCCCNC(=O)c1ccc2c(c1)NC(=O)C(CS(=O)(=O)Cc1ccc(C)cc1)N2` (centres undefined), under setting [1], the AC50 is 1 µM [rising, partial curve, poor fit].

`CCCCN(C)S(=O)(=O)c1ccc(C(=O)Nc2ccc(-c3nc4ccc(C)cc4s3)cc2)cc1`: the AC50 under setting [1] is 1.26 µM [rising, partial curve].

Regarding `Cc1cc(NC(=O)c2cccn2-c2nnc(N3CCCCC3)s2)ccc1Br`, the half-maximal activity concentration (AC50) under setting [1] is 10 µM [falling, partial curve, poor fit].

For the compound `CCC1CN(C(=O)Nc2cc(Cl)c(OC)cc2OC)c2ccccc2O1` (centres undefined), the AC50 under setting [1] was 2.51 µM [rising, partial curve].

As for `COc1cccc(NC(=O)c2oc3ccc(S(=O)(=O)N4CCCCCC4)cc3c2C)c1`, under setting [1], the AC50 is 10 µM [falling, partial curve].
